{"source": "PubChem BioAssay AID1508597 (Cure First, 2020)", "assay": "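Survival screen with siRNA in ovarian cancer cells derived from patients, with or without rucaparib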 (primary screen)", "system": "human ovarian carcinoma lines grown from tumours: OCI-P5x (papillary serous) and OCI-C5x (clear cell)", "reagents": "siRNA pool against human genes, 1.25 pmol siRNA per well", "duration": "72 h or 96 h, depending on the cell culture", "challenge": "rucaparib 20 µM (about IC30) or vehicle, present until read-out", "detection": "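ATP luminescence measured at 72 or 96 h according to the culture, then normalised and expressed as percent viability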", "reading the numbers": "viability, normalised: higher = more viable cells remaining", "active means": "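Active when normalised viability falls below 80 percent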", "calls": "active = viability under 80%; inactive = viability 80% or more", "note": "The whole screen tested about 2,100 reagents; shown is a part drawn at random. 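Calls flag viability under 80% in either arm, not effects specific to rucaparib; the reference for percent is not stated.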 Not given: the 100% reference."}
{"gene": "TSSK3", "rucaparib or vehicle": "Rucaparib", "cell line": "OCI-C5x (clear cell)", "technical replicate": "1", "viability, normalised (%)": 45, "Call": "active"}
{"gene": "TSSK3", "rucaparib or vehicle": "Rucaparib", "cell line": "OCI-C5x (clear cell)", "technical replicate": "2", "viability, normalised (%)": 74.1, "Call": "active"}
{"gene": "TSSK3", "rucaparib or vehicle": "Rucaparib", "cell line": "OCI-C5x (clear cell)", "technical replicate": "3", "viability, normalised (%)": 58.2, "Call": "active"}
{"gene": "TSSK3", "rucaparib or vehicle": "Rucaparib", "cell line": "OCI-P5x (serous)", "technical replicate": "1", "viability, normalised (%)": 114, "Call": "inactive"}
{"gene": "TSSK3", "rucaparib or vehicle": "Rucaparib", "cell line": "OCI-P5x (serous)", "technical replicate": "2", "viability, normalised (%)": 88.5, "Call": "inactive"}
{"gene": "TSSK3", "rucaparib or vehicle": "Rucaparib", "cell line": "OCI-P5x (serous)", "technical replicate": "3", "viability, normalised (%)": 113, "Call": "inactive"}
{"gene": "TSSK3", "rucaparib or vehicle": "Vehicle", "cell line": "OCI-C5x (clear cell)", "technical replicate": "1", "viability, normalised (%)": 79.2, "Call": "active"}
{"gene": "TSSK3", "rucaparib or vehicle": "Vehicle", "cell line": "OCI-C5x (clear cell)", "technical replicate": "2", "viability, normalised (%)": 75.4, "Call": "active"}
{"gene": "TSSK3", "rucaparib or vehicle": "Vehicle", "cell line": "OCI-C5x (clear cell)", "technical replicate": "3", "viability, normalised (%)": 66.2, "Call": "active"}
{"gene": "TSSK3", "rucaparib or vehicle": "Vehicle", "cell line": "OCI-P5x (serous)", "technical replicate": "1", "viability, normalised (%)": 96.9, "Call": "inactive"}
{"gene": "TSSK3", "rucaparib or vehicle": "Vehicle", "cell line": "OCI-P5x (serous)", "technical replicate": "2", "viability, normalised (%)": 107, "Call": "inactive"}
{"gene": "TSSK3", "rucaparib or vehicle": "Vehicle", "cell line": "OCI-P5x (serous)", "technical replicate": "3", "viability, normalised (%)": 114, "Call": "inactive"}
{"gene": "PHF8", "rucaparib or vehicle": "Rucaparib", "cell line": "OCI-C5x (clear cell)", "technical replicate": "1", "viability, normalised (%)": 65.8, "Call": "active"}
{"gene": "PHF8", "rucaparib or vehicle": "Rucaparib", "cell line": "OCI-C5x (clear cell)", "technical replicate": "2", "viability, normalised (%)": 44.2, "Call": "active"}
{"gene": "PHF8", "rucaparib or vehicle": "Rucaparib", "cell line": "OCI-C5x (clear cell)", "technical replicate": "3", "viability, normalised (%)": 44.2, "Call": "active"}
{"gene": "PHF8", "rucaparib or vehicle": "Rucaparib", "cell line": "OCI-P5x (serous)", "technical replicate": "1", "viability, normalised (%)": 43.1, "Call": "active"}
{"gene": "PHF8", "rucaparib or vehicle": "Rucaparib", "cell line": "OCI-P5x (serous)", "technical replicate": "2", "viability, normalised (%)": 47.6, "Call": "active"}
{"gene": "PHF8", "rucaparib or vehicle": "Rucaparib", "cell line": "OCI-P5x (serous)", "technical replicate": "3", "viability, normalised (%)": 49.8, "Call": "active"}
{"gene": "PHF8", "rucaparib or vehicle": "Vehicle", "cell line": "OCI-C5x (clear cell)", "technical replicate": "1", "viability, normalised (%)": 54.6, "Call": "active"}
{"gene": "PHF8", "rucaparib or vehicle": "Vehicle", "cell line": "OCI-C5x (clear cell)", "technical replicate": "2", "viability, normalised (%)": 55.4, "Call": "active"}
{"gene": "PHF8", "rucaparib or vehicle": "Vehicle", "cell line": "OCI-C5x (clear cell)", "technical replicate": "3", "viability, normalised (%)": 44.9, "Call": "active"}
{"gene": "PHF8", "rucaparib or vehicle": "Vehicle", "cell line": "OCI-P5x (serous)", "technical replicate": "1", "viability, normalised (%)": 70.3, "Call": "active"}
{"gene": "PHF8", "rucaparib or vehicle": "Vehicle", "cell line": "OCI-P5x (serous)", "technical replicate": "2", "viability, normalised (%)": 70.6, "Call": "active"}
{"gene": "PHF8", "rucaparib or vehicle": "Vehicle", "cell line": "OCI-P5x (serous)", "technical replicate": "3", "viability, normalised (%)": 90.3, "Call": "inactive"}
{"gene": "PHF11", "rucaparib or vehicle": "Rucaparib", "cell line": "OCI-C5x (clear cell)", "technical replicate": "1", "viability, normalised (%)": 50.3, "Call": "active"}
{"gene": "PHF11", "rucaparib or vehicle": "Rucaparib", "cell line": "OCI-C5x (clear cell)", "technical replicate": "2", "viability, normalised (%)": 48.1, "Call": "active"}
{"gene": "PHF11", "rucaparib or vehicle": "Rucaparib", "cell line": "OCI-C5x (clear cell)", "technical replicate": "3", "viability, normalised (%)": 44.8, "Call": "active"}
{"gene": "PHF11", "rucaparib or vehicle": "Rucaparib", "cell line": "OCI-P5x (serous)", "technical replicate": "1", "viability, normalised (%)": 40.8, "Call": "active"}
{"gene": "PHF11", "rucaparib or vehicle": "Rucaparib", "cell line": "OCI-P5x (serous)", "technical replicate": "2", "viability, normalised (%)": 46.3, "Call": "active"}
{"gene": "PHF11", "rucaparib or vehicle": "Rucaparib", "cell line": "OCI-P5x (serous)", "technical replicate": "3", "viability, normalised (%)": 44.1, "Call": "active"}
{"gene": "PHF11", "rucaparib or vehicle": "Vehicle", "cell line": "OCI-C5x (clear cell)", "technical replicate": "1", "viability, normalised (%)": 41.7, "Call": "active"}
{"gene": "PHF11", "rucaparib or vehicle": "Vehicle", "cell line": "OCI-C5x (clear cell)", "technical replicate": "2", "viability, normalised (%)": 35.3, "Call": "active"}
{"gene": "PHF11", "rucaparib or vehicle": "Vehicle", "cell line": "OCI-C5x (clear cell)", "technical replicate": "3", "viability, normalised (%)": 56.1, "Call": "active"}
{"gene": "PHF11", "rucaparib or vehicle": "Vehicle", "cell line": "OCI-P5x (serous)", "technical replicate": "1", "viability, normalised (%)": 40.4, "Call": "active"}
{"gene": "PHF11", "rucaparib or vehicle": "Vehicle", "cell line": "OCI-P5x (serous)", "technical replicate": "2", "viability, normalised (%)": 59.5, "Call": "active"}
{"gene": "PHF11", "rucaparib or vehicle": "Vehicle", "cell line": "OCI-P5x (serous)", "technical replicate": "3", "viability, normalised (%)": 64.9, "Call": "active"}

Reprinted from above (5 entries):
{"gene": "PHF8", "rucaparib or vehicle": "Rucaparib", "cell line": "OCI-C5x (clear cell)", "technical replicate": "3", "viability, normalised (%)": 44.2, "Call": "active"}
{"gene": "PHF8", "rucaparib or vehicle": "Rucaparib", "cell line": "OCI-P5x (serous)", "technical replicate": "1", "viability, normalised (%)": 43.1, "Call": "active"}
{"gene": "PHF8", "rucaparib or vehicle": "Rucaparib", "cell line": "OCI-P5x (serous)", "technical replicate": "2", "viability, normalised (%)": 47.6, "Call": "active"}
{"gene": "PHF8", "rucaparib or vehicle": "Rucaparib", "cell line": "OCI-P5x (serous)", "technical replicate": "3", "viability, normalised (%)": 49.8, "Call": "active"}
{"gene": "PHF8", "rucaparib or vehicle": "Vehicle", "cell line": "OCI-C5x (clear cell)", "technical replicate": "1", "viability, normalised (%)": 54.6, "Call": "active"}
